# Data as given in PubChem BioAssay AID588590 (National Center for Advancing Translational Sciences (NCATS), 2011).
# Sequences of proteins named here, by UniProt entry; tags and fusion partners are left off. A change or cut given only in a name is not applied to a line headed by its entry.
# UniProt Q9UNA4: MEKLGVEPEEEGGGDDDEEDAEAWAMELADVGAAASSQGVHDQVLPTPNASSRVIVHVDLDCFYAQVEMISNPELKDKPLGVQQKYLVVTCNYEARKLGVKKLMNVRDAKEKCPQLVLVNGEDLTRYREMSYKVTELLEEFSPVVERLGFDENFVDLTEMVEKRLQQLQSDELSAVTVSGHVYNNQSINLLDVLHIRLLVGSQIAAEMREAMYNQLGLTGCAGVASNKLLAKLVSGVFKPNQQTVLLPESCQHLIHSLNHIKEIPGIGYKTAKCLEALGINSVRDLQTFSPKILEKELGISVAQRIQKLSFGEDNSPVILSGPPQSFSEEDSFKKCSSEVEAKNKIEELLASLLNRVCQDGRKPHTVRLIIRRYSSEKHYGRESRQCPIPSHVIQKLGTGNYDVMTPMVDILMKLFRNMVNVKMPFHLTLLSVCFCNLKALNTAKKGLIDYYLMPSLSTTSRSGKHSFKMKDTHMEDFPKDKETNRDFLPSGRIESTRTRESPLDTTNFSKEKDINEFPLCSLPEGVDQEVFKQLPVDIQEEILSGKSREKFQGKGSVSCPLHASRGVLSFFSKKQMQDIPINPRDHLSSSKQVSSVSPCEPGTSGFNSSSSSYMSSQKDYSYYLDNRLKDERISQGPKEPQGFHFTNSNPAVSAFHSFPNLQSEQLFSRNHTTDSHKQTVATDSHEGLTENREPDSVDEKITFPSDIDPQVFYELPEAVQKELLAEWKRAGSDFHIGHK
# In all, about 390,000 compounds went through this assay and about 4,000 (1%) were called active. The shares of active, inactive and inconclusive entries below differ from those in the screen. Calls follow the shape of the dose curve; as a rule, active = well fitted inhibition curve with a large enough effect; inconclusive = small, poorly fitted or top-dose-only effect, or another doubt; inactive = no such curve, though single readings can be large or run the other way. Where the call is inconclusive, the potency comes from a doubtful curve fit.
# Target: DNA polymerase iota (Homo sapiens) (UniProt Q9UNA4)
# Test: qHTS for Inhibitors of Polymerase Iota
# Details: Pol iota fluorescent replication assay, 10 min; series mostly up to 115 µM
# How it was run: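 Fluorescent replication assay read twice, at 0 min and 10 min after adding 50 nM (final) substrate. Enzyme (10 nM) and compounds were first incubated 15 min at room temperature; enzyme-free buffer wells were negative controls.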
# Potency is read from the fitted curve at half-maximal effect.
row,Structure (SMILES),Potency
1,OCC1CCCCN1C(=S)Nc1ccc(Cl)cc1Cl (stereo not given),"inconclusive: 100 µM [inhibitor, single point]"
2,Nc1ncc([N+](=O)[O-])cc1S(=O)(=O)c1ccccc1,inactive
3,O=C(/C=C/c1ccco1)NCCc1ccccc1,inactive
4,CCOc1cc(Br)cc(/C=C2\SC(=Nc3ccccc3)NC2=O)c1O,"inconclusive: 14.1 µM [inhibitor, full curve, poor fit]"
5,N#Cc1c(=O)c2nc(NCc3ccccc3)ncc2n2ccccc12,"inconclusive: 15.8 µM [inhibitor, partial curve, poor fit]"
6,COc1cc(/C=C(\C#N)c2nc3ccc(C)cc3[nH]2)cc([N+](=O)[O-])c1O,"inconclusive: 31.6 µM [inhibitor, single point]"
7,COc1cccc(/C=C2/C(=O)NN(c3ccc(C)c(C)c3)C2=O)c1,"inconclusive: 20 µM [inhibitor, partial curve, poor fit]"
8,Cc1cccnc1NC(=O)CCC(=O)c1cccs1,"inconclusive: 56.2 µM [inhibitor, partial curve, poor fit]"
9,Cc1cc(C)c(NC(=O)c2cccc3c2C(=O)N(C2CCCCC2)C3)c(C)c1,"inconclusive: 44.7 µM [inhibitor, partial curve, poor fit]"
10,NC1=NC(c2cccc(Cl)c2)N(CCc2ccc(F)cc2)C(N)=N1 (stereo not given),inactive
11,COC(=O)CCCC1=CC2=CC(=O)C(C)(OC(=O)c3cccs3)C(=O)C2=CN1CCc1c[nH]c2ccccc12 (stereo not given),active: 50.1 µM
12,CCOc1ccc(C(=O)CC(C(=O)O)N2CCN(Cc3ccccc3)CC2)cc1 (stereo not given),"inconclusive: 8.91 µM [inhibitor, full curve, poor fit]"
13,Cc1cccc(N2CC(C(=O)Nc3nnc(SCCN4CCOCC4)s3)CC2=O)c1 (stereo not given),"inconclusive: 15.8 µM [inhibitor, partial curve, poor fit]"
14,O=C(NC(=C(Cl)Cl)S(=O)(=O)c1ccc(Cl)cc1)c1ccccc1,"inconclusive: 28.2 µM [inhibitor, single point]"
15,CC1CCCN(S(=O)(=O)c2ccc(NC(=O)c3nc(SC(C)C)ncc3Cl)cc2)C1 (stereo not given),inactive
16,O=C(Cc1cccc(NC(=O)C2CCN(C(=O)c3ccccc3)CC2)c1)Nc1cccc(C(=O)N2CCOCC2)c1,"inconclusive: 89.1 µM [inhibitor, single point]"
17,COc1cc(Cl)ccc1Nc1ncc(C(=O)N2CCN(c3ccccc3OC)CC2)c2ccccc12,inactive
18,COc1ccccc1NC(=O)Cn1nnc(-c2ccccc2NS(=O)(=O)c2ccccc2)n1,active: 89.1 µM
19,Cc1cnc(C(=O)OCC(=O)Nc2ccc(Cl)cn2)cn1,inactive
20,COc1cccc(CNC(=O)c2ccc(Cn3c(SCc4ccccc4)nc4cccnc43)cc2)c1,"inconclusive: 79.4 µM [inhibitor, partial curve, poor fit]"
21,C(=C\c1ccccc1)/C=N/Nc1nc2ccccc2s1,inactive
22,O=[N+]([O-])c1ccccc1S(=O)(=O)Nc1ccc(-c2ccc(N3CCOCC3)nn2)cc1,"inconclusive: 17.8 µM [inhibitor, full curve, poor fit]"

row,Structure (SMILES),Potency
1,Cc1ccc(C(=O)N2CCC(c3c[nH]c4ccccc34)(c3c[nH]c4ccccc34)CC2)cc1,inactive
2,COc1ccccc1NC(C)=O,"inconclusive: 35.5 µM [inhibitor, single point]"
3,CCCCN(CC)CCNC(=O)c1cc2c(-c3ccc(Cl)cc3)nn(C)c2s1,"inconclusive: 17.8 µM [inhibitor, full curve]"
4,COCCN(C(=O)COC(=O)CCC(=O)c1cccs1)c1c(N)n(Cc2ccccc2)c(=O)[nH]c1=O,inactive
5,Cc1[nH]c(N)nc(=S)c1CCCNc1ccccc1,"inconclusive: 2.24 µM [inhibitor, full curve, poor fit]"
6,FC(F)Oc1ccc(-c2csc(NNC3=NCCCCC3)n2)cc1,inactive
7,Cc1ccc(S(=O)(=O)c2nc(-c3ccco3)oc2SC(C)c2ccccc2)cc1 (stereo not given),"inconclusive: 31.6 µM [inhibitor, partial curve, poor fit]"
8,Cc1nc(CC(=O)Nc2cccc(C)c2C)cs1,inactive
9,CC(=O)c1cccc(S(=O)(=O)NCCc2csc3nc(-c4ccc(F)cc4)nn23)c1,inactive
10,Nc1c(C(=O)Nc2ccccc2)sc2nc3c(c(-c4ccco4)c12)CCC3,"inconclusive: 35.5 µM [inhibitor, single point]"
11,CC(C)(C)n1ncc2c(=O)n(Cc3ccccc3F)cnc21,inactive
12,Cc1ccc2c(=O)cc(CSc3ccccc3)[nH]c2c1C,inactive
13,COc1ccccc1C(=O)NNC(=S)NC(=O)c1cc(OC)c(OC)c(OC)c1,inactive
14,COc1cc(/C=C/C(=O)OCC(=O)Nc2cc(C)c(C)cc2[N+](=O)[O-])ccc1O,inactive
15,CCC(CC)C(=O)Nc1cc(C)cc(C)c1,"inconclusive: 39.8 µM [inhibitor, single point]"
16,O=C(O)COc1ccccc1C=NNc1ccc([N+](=O)[O-])cc1S(=O)(=O)Nc1ccc(Cl)cc1,"inconclusive: 31.6 µM [inhibitor, single point]"
17,CC(Oc1ccccc1)C(=O)NC1C(=O)N2C1SC(C)(C)C2C(=O)O (stereo not given),inactive
18,Cn1c(-c2ccccc2)cc2onc(-c3ccccc3)c2c1=O,"inconclusive: 39.8 µM [inhibitor, single point]"
19,Cc1cc(NC(=O)C(C)SCC(=O)Nc2nnc(CC(C)C)s2)no1 (stereo not given),inactive
20,O=C(O)c1cc(-c2ccco2)nc2cc3ccccc3cc12,"inconclusive: 15.8 µM [inhibitor, full curve, poor fit]"
21,CC(C)(C)Cc1nnc(NC(=O)CCc2ccccc2)s1,"inconclusive: 39.8 µM [inhibitor, partial curve, poor fit]"
22,CCOC(=O)CCCCC(=O)c1[nH]c(=O)[nH]c1CSc1nc(-c2ccccc2)c(C#N)c(=O)[nH]1,"inconclusive: 56.2 µM [inhibitor, partial curve, poor fit]"

# Looked up above.
# Entry of Cc1nc(CC(=O)Nc2cccc(C)c2C)cs1 under Potency: inactive
# Entry of NC1=NC(c2cccc(Cl)c2)N(CCc2ccc(F)cc2)C(N)=N1 (stereo not given) under Potency: inactive
# Entry of COc1cccc(CNC(=O)c2ccc(Cn3c(SCc4ccccc4)nc4cccnc43)cc2)c1 under Potency: inconclusive: 79.4 µM [inhibitor, partial curve, poor fit]
# Entry of COC(=O)CCCC1=CC2=CC(=O)C(C)(OC(=O)c3cccs3)C(=O)C2=CN1CCc1c[nH]c2ccccc12 (stereo not given) under Potency: active: 50.1 µM

# (listing goes on)

row,Structure (SMILES),Potency
1,CCN1/C(=C/c2ccc3cccc(C)c3[n+]2CC)Sc2ccccc21,"inconclusive: 17.8 µM [inhibitor, partial curve]"
2,Cc1ccc(CN2CCCn3nc(C(=O)NCCc4ccc(Cl)cc4)cc3C2=O)cc1,"inconclusive: 89.1 µM [inhibitor, single point]"
3,COc1cc(/C=C2\SC(c3ccc(C)cc3)=NC2=O)ccc1O,"inconclusive: 10 µM [inhibitor, partial curve, poor fit]"
4,O=C(N/N=C/c1ccc(O)cc1O)C(=O)N/N=C/c1ccc(O)cc1O,"inconclusive: 50.1 µM [inhibitor, partial curve, poor fit]"
5,CCc1ccc(NC(=O)[C@H](C)NC(=O)C2CCN(C(=O)[C@@H](N)CC(C)C)CC2)cc1,"inconclusive: 35.5 µM [inhibitor, single point]"
6,S=c1[nH]nc(-c2ccccc2)n1/N=C/c1ccc(-c2ccccc2Cl)o1,"inconclusive: 20 µM [inhibitor, full curve, poor fit]"
7,O=C(Nc1ccc(Br)cc1Cl)c1ccc2c(=O)n3c(nc2c1)CCC3,"inconclusive: 39.8 µM [inhibitor, single point]"
8,Nn1c(SCC(=O)N2CCOCC2)nnc1C1CC1,"inconclusive: 100 µM [inhibitor, single point]"
9,O=C(O)COc1ccccc1/C=C1\SC(=S)N(NC(=O)c2ccccc2O)C1=O,active: 7.08 µM
10,Cc1cc(C(=O)Nc2ccc(Cl)cc2)c(C)n1Cc1cccs1,"inconclusive: 89.1 µM [inhibitor, partial curve]"
11,COCCNC(=O)c1ccc(N2CC3CC(C2)c2cccc(=O)n2C3)c(NC(=O)c2cc(OC)cc(OC)c2)c1 (stereo not given),"inconclusive: 89.1 µM [inhibitor, single point]"
12,COc1ccc(Nc2nc(Cl)nc(NCc3ccco3)n2)c(OC)c1,"inconclusive: 12.6 µM [inhibitor, partial curve, poor fit]"
13,O=C(CCCCn1c(=S)[nH]c2ccsc2c1=O)NCc1ccco1,"inconclusive: 12.6 µM [inhibitor, full curve, poor fit]"
14,CCN(CC)c1ccc(NC(=O)c2ccccc2Br)cc1S(=O)(=O)Nc1ccccc1OC,"inconclusive: 28.2 µM [inhibitor, partial curve]"
15,C#CCOCCOCCOCCNc1nc(N2CCN(C(=O)CCCCCCCCCCNC(=O)[C@H](CO)n3cc(CCCSC)nn3)CC2)nc(N2CCN(C(=O)CCCCCCCCCCNC(=O)[C@H](CCCN=C(N)N)n3cc(C[C@@H](C)CC)nn3)CC2)n1,"inconclusive: 39.8 µM [inhibitor, single point]"
16,CC(=O)Nc1ccc(NC(=O)c2cc(=O)c3cc(C)c(C)cc3o2)cc1,"inconclusive: 79.4 µM [inhibitor, single point]"
17,Cc1c(Cl)cccc1NC(CC(=O)c1ccccc1)C(=O)O (stereo not given),"inconclusive: 39.8 µM [inhibitor, single point]"
18,Brc1cccc(-c2nnc3n2CCCCC3)c1,"inconclusive: 7.08 µM [inhibitor, single point]"
19,O=C(O)C1=CC[C@@H](c2ccc(Cl)cc2)N(S(=O)(=O)c2ccc(Cl)cc2)[C@H]1c1ccc(Br)cc1,inactive
20,O=C(NCc1ccco1)c1cccs1,"inconclusive: 7.08 µM [inhibitor, full curve, poor fit]"
21,COc1cccc2c1C(=O)c1c(O)c3c(c(O)c1C2=O)C[C@@](O)(C(=O)CO)C[C@@H]3OC1CC(N)C(O)C(C)O1 (stereo not given in full),active: 35.5 µM
